# Results from patent publication EP1757701A1.
# No constants are given. Whether binding was seen depends on the method and setting. Some results given as binding are weak or reduced against the parent protein; the word gives no strength.
# B1: … (peptide)
# peptide: WVEDCSWHLGELVWCVGLDF
# B2: … (peptide)
# peptide: DLADCSWHLGELVWCVGLDE
# B3: … (peptide)
# peptide: DLADCSWHLGELVWCSRVEG
# B4: … (peptide)
# peptide: WEADCAWHLGALVWCTKVEE
# B5: … (peptide)
# peptide: WEADCAWHLGEAVWCTKVEE
# B6: … (peptide)
# peptide: WEADCAWHLGELAWCTKVEE
# B7: … (peptide)
# peptide: AEADCAWHLGELVWCTKVEE
# B8: … (peptide)
# peptide: WEAACSWHLGELVWCTKVEE
# B9: … (peptide)
# peptide: WEADCAWHAGELVWCTKVEE
# B10: … (peptide)
# peptide: WEADCAWHLGELVACTKVEE
# B11: … (peptide)
# peptide: WEADCAWHLGELVWCTKAEE
# B12: … (peptide)
# peptide: WEADCAWHLGELVWCTKVAE
# B13: … (peptide)
# peptide: WEADCAWHLGELVWCTAVEE
# B14: … (peptide)
# peptide: WEPDCAWHLGELVWCTKVEE
# B15: … (peptide)
# peptide: WEADCAWHLGELVWCAKVEE
# B16: … (peptide)
# peptide: WEADCAWHLAELVWCTKVEE
# B17: … (peptide)
# peptide: WEADCAWALGELVWCTKVEE
# B18: … (peptide)
# peptide: WEAACAWHLGELVWCTKVEE
# B19: … (peptide)
# peptide: WAADCAWHLGELVWCTKVEE
# B20: … (peptide)
# peptide: WEADCAAHLGELVWCTKVEE
# B21: … (peptide)
# peptide: KEASCSYWLGELVWCEDTLE
# B22: … (peptide)
# peptide: EEADCSYWLGELVWCVAGVE
# B23: … (peptide)
# peptide: GEPDCAWHLGELVWCTPMVF
# B24: … (peptide)
# peptide: GMRDCSYHLGELVWCSDMEL
# B25: … (peptide)
# peptide: KEASCSYWLGELVWCEDMME
# B26: … (peptide)
# peptide: EKEDCSYWLGELVWCVAGVE
# B27: … (peptide)
# peptide: KEASCAWHLGELVWCSEVEE
# B28: … (peptide)
# peptide: KEADCAWHLGELVWCVAGVE
# B29: … (peptide)
# peptide: EDPDCSYWLGELVWCVAGVE
# B30: … (peptide)
# peptide: KEASCSYWLGELVWCDDGVE
# B31: … (peptide)
# peptide: KEASCSYWLGELVWCDTLTE
# B32: … (peptide)
# peptide: KEASCSYWLGEVWKCKSGVE
# B33: … (peptide)
# peptide: KEASCSYWLGELVWCDGLDE
# B34: … (peptide)
# peptide: RVADCAWHMGELVWCSELEV
# B35: … (peptide)
# peptide: ESEDCSYWLGELVWCVAGVE
# B36: … (peptide)
# peptide: KEASCSYWLGELVWCSPGVE
# B37: … (peptide)
# peptide: EVADCSWHLGELVWCTEGEF
# B38: … (peptide)
# peptide: KEAECSYHLGELVWCVAGVE
# B39: … (peptide)
# peptide: KEASCSYWLGELVWCDDTPV
# B40: … (peptide)
# peptide: KEASCSYHLGELVWCVAGVE
# B41: … (peptide)
# peptide: KEASCSYWLGELVWCSAGVE
# B42: … (peptide)
# peptide: KEASCSYWLGELVWCDTFDE
# B43: … (peptide)
# peptide: EEPDCSWHLGELVWCTPIEV
# B44: … (peptide)
# peptide: KEASCSYWLGELVWCDNGVE
# B45: … (peptide)
# peptide: WVEDCSWHMGELVWCDGGEF
# B46: … (peptide)
# peptide: KEASCSYWLGELVWCVGLDE
# B47: … (peptide)
# peptide: GEADCAWHLGELVWCTPMDL
# B48: … (peptide)
# peptide: KEASCSYWLGELVWCSGVEG
# B49: … (peptide)
# peptide: KEASCSYWLGELVWCDWMNG
# B50: … (peptide)
# peptide: GEEDCAWHLGELVWCTDVED
# B51: … (peptide)
# peptide: GVRNCAYHLGELVWCTPMEF
# B52: … (peptide)
# peptide: GEQDCSYHMGELVWCTTVDG
# B53: … (peptide)
# peptide: KEASCSWHLGELVWCVAGVE
# B54: … (peptide)
# peptide: DLADCSYWLGELVWCSRVEG
# B55: … (peptide)
# peptide: KEARCWYWHGELVWCSDPEE
# B56: … (peptide)
# peptide: WEEDCAWHLGELVWCAEFDE
# B57: … (peptide)
# peptide: GEQDCSWHLGELVWCTPMEV
# B58: … (peptide)
# peptide: EVEDCAYHLGELVWCSDLEG
# B59: … (peptide)
# peptide: AWKTCQWLGELVWCVAGVE
# B60: … (peptide)
# peptide: SETTCSYWLGELVWCVAGVE
# B61: … (peptide)
# peptide: KEASCSYWLGELVWCDDYGE
# B62: … (peptide)
# peptide: KEASCSYWLGELVWCEDTME
# B63: … (peptide)
# peptide: KEASCSYWLGELVWCTEGVE
# B64: … (peptide)
# peptide: KEASCSYWLGELVWCSEGVE
# Target: IgG-Fc [IgG part: P01857]
# Experiment: phage clone, IgG-Fc
row,binding,Binder
1,binds,B1
2,binds,B2
3,binds,B3

# Target: IgG-Fc [IgG part: P01857]
# Experiment: phage clone, ALA scan, IgG-Fc
row,binding,Binder
1,binds,B4
2,binds,B5
3,binds,B6
4,binds,B7
5,binds,B8
6,binds,B9
7,binds,B10
8,binds,B11
9,binds,B12
10,binds,B13
11,binds,B14
12,binds,B15
13,binds,B16
14,binds,B17
15,binds,B18
16,binds,B19
17,binds,B20

# Target: IgG-Fc [IgG part: P01857]
# Experiment: phage clone selected on IgG-Fc
row,binding,Binder
1,binds,B21
2,binds,B22
3,binds,B23
4,binds,B24
5,binds,B25
6,binds,B26
7,binds,B27
8,binds,B28
9,binds,B29
10,binds,B30
11,binds,B31
12,binds,B32
13,binds,B33
14,binds,B34
15,binds,B35
16,binds,B36
17,binds,B37
18,binds,B38
19,binds,B39
20,binds,B40
21,binds,B41
22,binds,B42

row,binding,Binder
1,binds,B43
2,binds,B44
3,binds,B45
4,binds,B46
5,binds,B47
6,binds,B48
7,binds,B49
8,binds,B50
9,binds,B51
10,binds,B52
11,binds,B53
12,binds,B54
13,binds,B55
14,binds,B56
15,binds,B57
16,binds,B58
17,binds,B59
18,binds,B60
19,binds,B61
20,binds,B62
21,binds,B63
22,binds,B64
